Experimental data taken from publication PMC7011955, “Synthesis and biological evaluation of certain hydrazonoindolin-2-one derivatives as new potent anti-proliferative agents” (Journal of Enzyme Inhibition and Medicinal Chemistry, 2018).

Columns and labels:
[1] = system: NCI-H69AR cell line (expresses ABCC1 efflux pump); assay: Growth inhibition of multidrug resistant lung cancer cell line; type: cell-based; conditions: NCI-H69AR vs A-549
Method: (§1) The anti-proliferative activity of the title compounds 3a-e, 5a-e, 7a-c, and 10a-l towards cancer cell lines, normal cell lines, and multidrug-resistant lung cancer NCI-H69AR cell line was determined using CellTiter-Glo™ Luminescent cell viability assay according to the previously published procedures[14]^,[15].
The anti-proliferative activity of compounds 7b and 10e was evaluated towards multidrug resistant lung cancer cell line (NCI-H69AR), which expresses the ABCC1 efflux pump protein. […] Furthermore, the H69AR cells manifested a lesser degree of resistance to the reference drug, Sunitinib (1.9-fold less sensitive).

[2] = system: lung cancer A-549 cell line; assay: CellTiter-Glo Luminescent cell viability assay, anti-proliferative activity, A-549; type: cell-based, human; conditions: A-549 IC50 vs Sunitinib
Method: as §1
The cancer cell growth inhibitory activity of the synthesised 25 compounds 3a-e, 5a-e, 7a-c, and 10a-l was evaluated in vitro towards three human cancer cell lines, namely lung cancer A-549, human colon cancer HT-29, and breast cancer ZR-75 cell lines using CellTiter-Glo™ Luminescent cell viability assay. Sunitinib was included in this assay as a reference drug.
The prepared hydrazonoindolin-2-ones were first evaluated at preliminary anti-proliferative assay against the three cancer cell lines in quadruplicate at a single concentration of 30 µM. The data presented as percentage growth inhibition (GI%) caused by the test compounds (Table 1).

Compound | Fold resistant [1] | times more active than Sunitinib [2] [times]
CCN(CC)CCNC(=O)c1c(C)[nH]c(/C=C2\C(=O)Nc3ccc(F)cc32)c1C [Sunitinib, reference compound] | 1.9 | –
O=C1Nc2ccc(Cl)cc2C1=NN=Cc1ccn[nH]1 [Compound 7b, 3-(((1H-pyrazol-5-yl)methylene)hydrazono)-5-chloroindolin-2-one] | 4.2 | 4.4
Cc1csc(C=NN=C2C(=O)Nc3ccc(Br)cc32)n1 [Compound 5e, 5-Bromo-3-(((4-methylthiazol-2-yl)methylene)hydrazono)indolin-2-one] | – | 2.8
O=C1Nc2ccc(Cl)cc2C1=NN=Cc1nccs1 [Compound 5b, 5-Chloro-3-((thiazol-2-ylmethylene)hydrazono)indolin-2-one] | – | 2
Cc1csc(C=NN=C2C(=O)Nc3ccc(Cl)cc32)n1 [Compound 5c, 5-Chloro-3-(((4-methylthiazol-2-yl)methylene)hydrazono)indolin-2-one] | – | 4.7
O=C1Nc2ccc(Cl)cc2C1=NNc1nc(-c2ccccc2)cs1 [Compound 10e, 5-Chloro-3–(2-(4-phenylthiazol-2-yl)hydrazono)indolin-2-one] | 4.0 | 2.1
